No constants are given. Whether binding was seen depends on the method and setting. Some binding calls cover weakened binding; strength is not graded here. Tags and fused reporters may be left off the sequences shown.

What all share (test): two-hybrid
The target in experiment [1] is T1, KAKU4 N-terminus (1-310), yeast two-hybrid fusion (Arabidopsis thaliana) (UniProt Q949W6).
T1 sequence: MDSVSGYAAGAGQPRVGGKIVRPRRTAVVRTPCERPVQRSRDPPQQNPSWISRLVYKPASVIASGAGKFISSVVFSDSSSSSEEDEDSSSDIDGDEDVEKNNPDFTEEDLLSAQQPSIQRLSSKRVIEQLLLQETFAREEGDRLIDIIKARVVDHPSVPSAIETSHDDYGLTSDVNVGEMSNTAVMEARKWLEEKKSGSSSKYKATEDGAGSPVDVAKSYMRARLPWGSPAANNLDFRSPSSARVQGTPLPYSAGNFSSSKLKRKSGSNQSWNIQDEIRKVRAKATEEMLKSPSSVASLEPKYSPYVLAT

In experiment [2] the target is T2, CROWDED NUCLEI 1 (CRWN1), yeast two-hybrid fusion (Arabidopsis thaliana) (UniProt F4HRT5).
T2 sequence: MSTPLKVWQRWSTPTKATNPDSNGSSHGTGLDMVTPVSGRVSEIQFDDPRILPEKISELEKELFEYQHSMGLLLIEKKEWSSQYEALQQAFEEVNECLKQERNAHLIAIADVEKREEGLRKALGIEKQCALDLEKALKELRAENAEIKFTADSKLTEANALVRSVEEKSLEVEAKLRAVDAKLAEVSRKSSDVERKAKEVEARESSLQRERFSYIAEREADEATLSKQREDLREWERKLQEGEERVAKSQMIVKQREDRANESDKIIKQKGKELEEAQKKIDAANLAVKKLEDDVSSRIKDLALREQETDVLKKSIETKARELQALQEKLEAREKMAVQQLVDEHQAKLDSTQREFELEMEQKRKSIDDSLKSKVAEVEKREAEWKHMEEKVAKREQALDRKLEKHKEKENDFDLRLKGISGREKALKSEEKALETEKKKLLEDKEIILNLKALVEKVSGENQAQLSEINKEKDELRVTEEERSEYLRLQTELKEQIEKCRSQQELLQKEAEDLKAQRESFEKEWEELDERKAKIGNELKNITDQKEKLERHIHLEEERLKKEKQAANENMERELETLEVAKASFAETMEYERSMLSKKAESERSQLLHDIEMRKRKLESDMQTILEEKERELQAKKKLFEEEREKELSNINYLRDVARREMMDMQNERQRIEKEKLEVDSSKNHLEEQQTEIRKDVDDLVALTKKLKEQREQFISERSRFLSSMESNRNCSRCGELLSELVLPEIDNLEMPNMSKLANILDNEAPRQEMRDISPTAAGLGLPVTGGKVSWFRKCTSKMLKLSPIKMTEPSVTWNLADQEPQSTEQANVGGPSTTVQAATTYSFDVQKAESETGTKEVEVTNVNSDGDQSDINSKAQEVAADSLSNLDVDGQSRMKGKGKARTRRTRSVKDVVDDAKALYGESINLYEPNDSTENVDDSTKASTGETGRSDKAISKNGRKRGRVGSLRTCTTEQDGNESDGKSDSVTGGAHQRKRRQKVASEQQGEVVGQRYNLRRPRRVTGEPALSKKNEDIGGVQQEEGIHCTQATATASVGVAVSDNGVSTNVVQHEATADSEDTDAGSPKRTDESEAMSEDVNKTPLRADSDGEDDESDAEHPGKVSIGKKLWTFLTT

The target in experiment [3] is T3, CROWDED NUCLEI 2 (CRWN2), yeast two-hybrid fusion (Arabidopsis thaliana) (UniProt Q9SAF6).
T3 sequence: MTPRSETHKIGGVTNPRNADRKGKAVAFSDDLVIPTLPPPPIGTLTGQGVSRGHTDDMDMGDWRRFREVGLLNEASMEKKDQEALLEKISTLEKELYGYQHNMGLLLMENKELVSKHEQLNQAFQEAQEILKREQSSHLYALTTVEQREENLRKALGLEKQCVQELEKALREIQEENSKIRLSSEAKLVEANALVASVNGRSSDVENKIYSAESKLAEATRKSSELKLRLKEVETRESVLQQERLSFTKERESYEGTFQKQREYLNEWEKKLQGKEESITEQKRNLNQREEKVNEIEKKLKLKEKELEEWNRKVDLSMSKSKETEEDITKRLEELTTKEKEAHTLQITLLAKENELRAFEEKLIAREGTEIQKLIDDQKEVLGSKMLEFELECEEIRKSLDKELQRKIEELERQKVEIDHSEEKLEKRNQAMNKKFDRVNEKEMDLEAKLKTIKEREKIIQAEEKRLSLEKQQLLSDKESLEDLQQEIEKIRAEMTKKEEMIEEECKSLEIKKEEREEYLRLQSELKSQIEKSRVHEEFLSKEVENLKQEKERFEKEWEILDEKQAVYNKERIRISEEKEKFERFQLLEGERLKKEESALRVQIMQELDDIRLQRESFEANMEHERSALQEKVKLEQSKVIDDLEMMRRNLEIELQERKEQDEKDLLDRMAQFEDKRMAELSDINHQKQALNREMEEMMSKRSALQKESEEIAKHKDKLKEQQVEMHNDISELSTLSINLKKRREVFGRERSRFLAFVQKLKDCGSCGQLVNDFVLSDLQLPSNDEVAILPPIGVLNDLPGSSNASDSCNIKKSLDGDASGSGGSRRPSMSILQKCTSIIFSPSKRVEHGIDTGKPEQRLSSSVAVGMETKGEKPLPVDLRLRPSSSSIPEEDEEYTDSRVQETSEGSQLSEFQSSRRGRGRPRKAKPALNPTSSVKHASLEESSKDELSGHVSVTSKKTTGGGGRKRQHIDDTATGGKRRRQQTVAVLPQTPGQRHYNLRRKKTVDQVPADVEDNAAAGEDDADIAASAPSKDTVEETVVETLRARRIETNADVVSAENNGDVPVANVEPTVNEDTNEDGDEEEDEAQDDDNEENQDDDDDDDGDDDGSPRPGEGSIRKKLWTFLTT

Experiment [4] has as its target T4, CROWDED NUCLEI 3 (CRWN3), yeast two-hybrid fusion (Arabidopsis thaliana) (UniProt Q9CA42).
T4 sequence: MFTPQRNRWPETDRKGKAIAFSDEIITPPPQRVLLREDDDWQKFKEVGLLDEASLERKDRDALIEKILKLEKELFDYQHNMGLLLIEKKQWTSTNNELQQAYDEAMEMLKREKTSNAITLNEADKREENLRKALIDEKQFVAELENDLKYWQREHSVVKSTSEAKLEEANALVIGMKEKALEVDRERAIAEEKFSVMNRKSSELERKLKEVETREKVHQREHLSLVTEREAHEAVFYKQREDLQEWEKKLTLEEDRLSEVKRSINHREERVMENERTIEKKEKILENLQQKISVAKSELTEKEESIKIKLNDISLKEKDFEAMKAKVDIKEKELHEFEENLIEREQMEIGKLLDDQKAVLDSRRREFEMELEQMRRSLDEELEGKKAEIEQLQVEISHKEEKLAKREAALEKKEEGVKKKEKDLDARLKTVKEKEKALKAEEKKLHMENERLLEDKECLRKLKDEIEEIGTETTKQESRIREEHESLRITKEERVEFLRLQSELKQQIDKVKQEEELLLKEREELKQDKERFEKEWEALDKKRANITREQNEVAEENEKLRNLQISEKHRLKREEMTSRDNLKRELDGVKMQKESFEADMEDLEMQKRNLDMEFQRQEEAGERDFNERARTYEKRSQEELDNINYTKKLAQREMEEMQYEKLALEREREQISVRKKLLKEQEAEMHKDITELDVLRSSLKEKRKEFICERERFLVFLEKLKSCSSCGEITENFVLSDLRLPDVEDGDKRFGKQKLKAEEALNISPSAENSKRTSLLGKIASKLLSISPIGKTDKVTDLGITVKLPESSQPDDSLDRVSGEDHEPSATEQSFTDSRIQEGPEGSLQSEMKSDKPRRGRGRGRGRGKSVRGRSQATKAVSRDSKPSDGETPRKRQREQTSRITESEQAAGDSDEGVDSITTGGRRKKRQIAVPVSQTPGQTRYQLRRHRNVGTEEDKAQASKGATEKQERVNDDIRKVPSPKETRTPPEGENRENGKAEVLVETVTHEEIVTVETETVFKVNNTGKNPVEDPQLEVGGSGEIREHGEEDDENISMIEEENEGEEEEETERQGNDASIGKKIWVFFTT

B1: KAKU4 protein deleted of M1, yeast two-hybrid fusion (protein, UniProt Q949W6-2)
chain: MDSVSGYAAGAGQPRVGGKIVRPRRTAVVRTPCERPVQRSRDPPQQNPSWISRLVYKPASVIASGAGKFISSVVFSDSSSSSEEDEDSSSDIDGDEDVEKNNPDFTEEDLLSAQQPSIQRLSPSVPSAIETSHDDYGLTSDVNVGEMSNTAVMEARKWLEEKKSGSSSKYKATEDGAGSPVDVAKSYMRARLPWGSPAANNLDFRSPSSARVQGTPLPYSAGNFSSSKLKRKSGSNQSWNIQDEIRKVRAKATEEMLKSPSSVASLEPKYSPYVLATDMLKGNASSLNADGAVRNEQSRALPNSAIPTSEHNQTTEANQAVKETGVLHTRSRGVGLEETFISTQGVKPSEDTNTAPQSGTAVDDFNDQDGDFIQPTSTIGNTTNAVLALGATLDPTGNSCIPKDVFETSKEADEIGASRHTSNGFPSSSPSSPAVMEGQPKPTPPEETKASQPIAEIHGDDMTVGNGSDGAINNESNDSHSSASNSSSTHEEEWLPGDQSLPNSNSASSSPGNTKVLAYSRRGRGRGRGRGRGGRGKGRAK
Regarding B1, in experiment [1], the binding entry was “no binding”.

B2: KAKU4 M2 motif alone, yeast two-hybrid fusion (domain or fragment, UniProt Q949W6-2 209-237)
chain: GAGSPVDVAKSYMRARLPWGSPAANNLDF
Consider B2, for which the binding result in experiment [2], in experiment [3] and in experiment [4] was “binds” in each case.

B3: KAKU4 M1 motif alone, yeast two-hybrid fusion (domain or fragment, UniProt Q949W6-2 123-155)
chain: SKRVIEQLLLQETFAREEGDRLIDIIKARVVDH
Take B3: the binding entry in experiment [1] is “binds”.

Values taken from paper doi:10.1101/2021.03.20.435662.
